Article PMC11054080
No constants are given. Whether binding was seen depends on the method and setting. For some assays here: In cells and extracts the contact can be indirect. For some assays here: Tags and fused reporters may be left off the sequences shown.

Protein sequences, listed by entry. Tags and fused reporters are not part of them.
UniProt Q39204: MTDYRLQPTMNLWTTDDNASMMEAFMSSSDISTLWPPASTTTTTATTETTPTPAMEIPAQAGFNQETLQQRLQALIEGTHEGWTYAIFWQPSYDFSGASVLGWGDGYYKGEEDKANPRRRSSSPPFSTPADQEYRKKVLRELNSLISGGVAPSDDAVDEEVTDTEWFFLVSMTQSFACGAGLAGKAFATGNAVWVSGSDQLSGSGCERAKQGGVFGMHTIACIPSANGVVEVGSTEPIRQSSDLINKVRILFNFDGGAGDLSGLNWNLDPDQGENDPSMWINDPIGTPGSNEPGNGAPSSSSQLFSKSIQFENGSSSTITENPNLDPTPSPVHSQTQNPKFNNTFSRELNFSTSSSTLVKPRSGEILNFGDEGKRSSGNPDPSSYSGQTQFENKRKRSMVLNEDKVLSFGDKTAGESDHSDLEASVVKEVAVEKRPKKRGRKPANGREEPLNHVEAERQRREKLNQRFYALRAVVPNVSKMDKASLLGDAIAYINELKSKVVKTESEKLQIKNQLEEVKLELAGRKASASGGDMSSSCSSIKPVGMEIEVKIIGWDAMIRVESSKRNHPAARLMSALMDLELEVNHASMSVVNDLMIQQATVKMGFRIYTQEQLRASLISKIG

T1: TTG1 in yeast two-hybrid (A. thaliana) (UniProt Q9XGN1)
T1 sequence: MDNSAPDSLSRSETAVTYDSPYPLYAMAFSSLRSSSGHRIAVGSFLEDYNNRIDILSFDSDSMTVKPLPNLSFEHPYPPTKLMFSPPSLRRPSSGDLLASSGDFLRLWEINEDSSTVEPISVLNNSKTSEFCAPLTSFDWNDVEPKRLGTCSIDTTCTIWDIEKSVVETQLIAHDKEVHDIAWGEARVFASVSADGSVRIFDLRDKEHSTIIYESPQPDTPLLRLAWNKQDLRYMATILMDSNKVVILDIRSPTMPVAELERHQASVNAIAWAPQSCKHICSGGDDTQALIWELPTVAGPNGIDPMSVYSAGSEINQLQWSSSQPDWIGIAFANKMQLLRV

T2: BBX21 with MYC label (pBBX21-MYC) (A. thaliana) (UniProt Q9LQZ7)
T2 sequence: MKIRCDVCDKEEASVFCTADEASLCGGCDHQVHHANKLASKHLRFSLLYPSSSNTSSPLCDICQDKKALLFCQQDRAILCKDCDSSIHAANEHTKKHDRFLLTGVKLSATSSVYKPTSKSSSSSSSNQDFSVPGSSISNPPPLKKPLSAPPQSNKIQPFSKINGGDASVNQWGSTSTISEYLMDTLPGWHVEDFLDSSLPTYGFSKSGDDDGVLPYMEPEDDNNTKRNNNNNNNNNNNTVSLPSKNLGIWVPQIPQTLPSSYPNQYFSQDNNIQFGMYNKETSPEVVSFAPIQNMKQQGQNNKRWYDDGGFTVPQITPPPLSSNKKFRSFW

T3: GL3 labeled by HA-tag (pGL3-HA) (A. thaliana) (UniProt Q9FN69)
T3 sequence: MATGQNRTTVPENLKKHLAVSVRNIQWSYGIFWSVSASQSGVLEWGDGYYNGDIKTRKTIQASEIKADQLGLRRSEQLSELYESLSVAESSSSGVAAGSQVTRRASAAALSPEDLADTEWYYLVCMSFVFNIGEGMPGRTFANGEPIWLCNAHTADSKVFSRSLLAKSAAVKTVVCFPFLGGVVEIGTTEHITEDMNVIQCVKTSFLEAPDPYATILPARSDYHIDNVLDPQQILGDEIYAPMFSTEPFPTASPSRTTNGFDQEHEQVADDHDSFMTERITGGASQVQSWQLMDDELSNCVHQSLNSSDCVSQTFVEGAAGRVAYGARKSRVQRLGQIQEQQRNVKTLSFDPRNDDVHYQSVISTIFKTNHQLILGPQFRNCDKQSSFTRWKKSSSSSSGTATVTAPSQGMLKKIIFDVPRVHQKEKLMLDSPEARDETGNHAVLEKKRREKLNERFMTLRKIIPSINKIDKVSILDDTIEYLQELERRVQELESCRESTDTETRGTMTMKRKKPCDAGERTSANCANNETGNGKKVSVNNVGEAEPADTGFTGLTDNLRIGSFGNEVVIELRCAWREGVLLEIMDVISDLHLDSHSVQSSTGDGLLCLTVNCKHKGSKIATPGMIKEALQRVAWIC

T4: PAP1 with HA label (pPAP1-HA) (A. thaliana) (UniProt Q9FE25)
T4 sequence: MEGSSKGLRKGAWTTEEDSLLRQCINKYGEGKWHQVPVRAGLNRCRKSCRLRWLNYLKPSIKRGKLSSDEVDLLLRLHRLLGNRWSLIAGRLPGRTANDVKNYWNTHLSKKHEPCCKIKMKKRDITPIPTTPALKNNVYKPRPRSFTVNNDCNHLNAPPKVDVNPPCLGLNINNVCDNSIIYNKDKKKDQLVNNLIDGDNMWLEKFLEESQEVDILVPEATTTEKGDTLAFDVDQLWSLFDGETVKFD


Experiments:
[1] = molecular target: T1, TTG1 in yeast two-hybrid (A. thaliana); test: two-hybrid; HybriZAP-2.1 Gal4 system, pAD-GAL4 2.1 and pBD-GAL4 Cam fusions in YRG-2 yeast; growth on SD/-Leu-His-Trp with or without 3-AT (HIS3 reporter)
[2] = molecular target: T2, BBX21 with MYC label (pBBX21-MYC) (A. thaliana); test: co-IP; HA- and MYC-labelled proteins co-expressed in N. benthamiana leaves (sampled 40 h after infiltration); total protein extract (50 mM Tris-HCl pH 7.5, 150 mM NaCl, 1 mM EDTA, 10% glycerol, 0.05% Tween20, 10 mM DTT, 50 uM MG132) on HA-agarose beads; blots with anti-HA and anti-MYC
[3] = molecular target: T3, GL3 labeled by HA-tag (pGL3-HA) (A. thaliana); test: as above
[4] = molecular target: MYC2 with HA label (pMYC2-HA) (A. thaliana) (UniProt Q39204); test: as above
[5] = molecular target: T4, PAP1 with HA label (pPAP1-HA) (A. thaliana); test: as above

Binder | binding [1] | binding [2] | binding [3] | binding [4] | binding [5]
SPL9 in yeast two-hybrid (protein, UniProt Q700W2 1-375) MEMGSNSGPGHGPGQAESGGSSTESSSFSGGLMFGQKIYFEDGGGGSGSSSSGGRSNRRVRGGGSGQSGQIPRCQVEGCGMDLTNAKGYYSRHRVCGVHSKTPKVTVAGIEQRFCQQCSRFHQLPEFDLEKRSCRRRLAGHNERRRKPQPASLSVLASRYGRIAPSLYENGDAGMNGSFLGNQEIGWPSSRTLDTRVMRRPVSSPSWQINPMNVFSQGSVGGGGTSFSSPEIMDTKLESYKGIGDSNCALSLLSNPHQPHDNNNNNNNNNNNNNNTWRASSGFGPMTVTMAQPPPAPSQHQYLNPPWVFKDNDNDMSPVLNLGRYTEPDNCQISSGTAMGEFELSDHHHQSRRQYMEDENTRAYDSSSHHTNWSL | no binding |  |  |  | 
SPL9 with MYC label (pSPL9-MYC) (protein, UniProt Q700W2 1-375) MEMGSNSGPGHGPGQAESGGSSTESSSFSGGLMFGQKIYFEDGGGGSGSSSSGGRSNRRVRGGGSGQSGQIPRCQVEGCGMDLTNAKGYYSRHRVCGVHSKTPKVTVAGIEQRFCQQCSRFHQLPEFDLEKRSCRRRLAGHNERRRKPQPASLSVLASRYGRIAPSLYENGDAGMNGSFLGNQEIGWPSSRTLDTRVMRRPVSSPSWQINPMNVFSQGSVGGGGTSFSSPEIMDTKLESYKGIGDSNCALSLLSNPHQPHDNNNNNNNNNNNNNNTWRASSGFGPMTVTMAQPPPAPSQHQYLNPPWVFKDNDNDMSPVLNLGRYTEPDNCQISSGTAMGEFELSDHHHQSRRQYMEDENTRAYDSSSHHTNWSL |  | no binding | no binding | no binding | 
BBX21 with MYC label (pBBX21-MYC) (protein, UniProt Q9LQZ7 1-331) MKIRCDVCDKEEASVFCTADEASLCGGCDHQVHHANKLASKHLRFSLLYPSSSNTSSPLCDICQDKKALLFCQQDRAILCKDCDSSIHAANEHTKKHDRFLLTGVKLSATSSVYKPTSKSSSSSSSNQDFSVPGSSISNPPPLKKPLSAPPQSNKIQPFSKINGGDASVNQWGSTSTISEYLMDTLPGWHVEDFLDSSLPTYGFSKSGDDDGVLPYMEPEDDNNTKRNNNNNNNNNNNTVSLPSKNLGIWVPQIPQTLPSSYPNQYFSQDNNIQFGMYNKETSPEVVSFAPIQNMKQQGQNNKRWYDDGGFTVPQITPPPLSSNKKFRSFW |  |  | no binding | no binding | no binding
BBX21 in yeast two-hybrid (protein, UniProt Q9LQZ7 1-331) MKIRCDVCDKEEASVFCTADEASLCGGCDHQVHHANKLASKHLRFSLLYPSSSNTSSPLCDICQDKKALLFCQQDRAILCKDCDSSIHAANEHTKKHDRFLLTGVKLSATSSVYKPTSKSSSSSSSNQDFSVPGSSISNPPPLKKPLSAPPQSNKIQPFSKINGGDASVNQWGSTSTISEYLMDTLPGWHVEDFLDSSLPTYGFSKSGDDDGVLPYMEPEDDNNTKRNNNNNNNNNNNTVSLPSKNLGIWVPQIPQTLPSSYPNQYFSQDNNIQFGMYNKETSPEVVSFAPIQNMKQQGQNNKRWYDDGGFTVPQITPPPLSSNKKFRSFW | no binding |  |  |  | 
